Results: PMC10944510
No constants are given. Whether binding was seen depends on the method and setting. In cells and extracts the contact can be indirect. Some results given as binding are weak or reduced against the parent protein; the word gives no strength. Where a sequence is shown, tags or fusion partners need not be part of it.

T1: KIF2C (human (endogenous in U2OS)) (UniProt Q99661)
T1 sequence: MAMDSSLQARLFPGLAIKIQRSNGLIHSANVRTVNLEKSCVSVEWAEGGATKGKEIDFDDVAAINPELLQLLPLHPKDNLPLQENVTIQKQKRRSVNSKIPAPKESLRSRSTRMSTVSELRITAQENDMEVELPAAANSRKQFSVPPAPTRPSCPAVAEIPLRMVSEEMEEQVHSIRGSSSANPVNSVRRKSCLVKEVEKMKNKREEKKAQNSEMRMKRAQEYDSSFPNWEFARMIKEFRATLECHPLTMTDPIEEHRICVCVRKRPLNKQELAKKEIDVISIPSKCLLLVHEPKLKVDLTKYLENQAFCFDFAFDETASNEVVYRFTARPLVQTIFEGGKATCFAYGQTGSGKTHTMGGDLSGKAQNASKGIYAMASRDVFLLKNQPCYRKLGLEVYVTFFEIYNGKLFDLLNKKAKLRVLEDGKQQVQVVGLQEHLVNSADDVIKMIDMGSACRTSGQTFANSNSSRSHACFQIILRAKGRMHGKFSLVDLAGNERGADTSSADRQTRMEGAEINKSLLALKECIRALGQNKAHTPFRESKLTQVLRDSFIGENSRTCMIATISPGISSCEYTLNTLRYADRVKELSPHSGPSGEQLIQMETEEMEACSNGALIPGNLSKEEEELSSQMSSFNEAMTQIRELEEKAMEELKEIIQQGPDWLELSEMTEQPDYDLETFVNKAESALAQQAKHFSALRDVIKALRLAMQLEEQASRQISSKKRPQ

T2: FLAG-tagged Nek2A (UniProt P51955)
T2 sequence: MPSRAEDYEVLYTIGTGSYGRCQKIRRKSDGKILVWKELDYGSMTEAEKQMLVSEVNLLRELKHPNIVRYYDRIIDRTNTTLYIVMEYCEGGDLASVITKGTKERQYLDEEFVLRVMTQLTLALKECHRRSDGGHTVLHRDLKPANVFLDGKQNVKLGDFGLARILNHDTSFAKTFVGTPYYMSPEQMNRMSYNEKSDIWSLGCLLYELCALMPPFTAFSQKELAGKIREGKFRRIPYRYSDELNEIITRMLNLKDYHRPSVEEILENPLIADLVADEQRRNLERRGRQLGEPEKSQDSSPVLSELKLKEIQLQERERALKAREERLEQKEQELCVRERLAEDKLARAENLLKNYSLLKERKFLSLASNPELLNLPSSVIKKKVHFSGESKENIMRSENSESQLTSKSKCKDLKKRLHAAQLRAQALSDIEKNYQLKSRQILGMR


Columns and labels:
[1] = molecular target: T1, KIF2C (human (endogenous in U2OS)); experiment: co-IP; U2OS cells with ectopically expressed FLAG-tagged Nek2A; cells crosslinked with 0.1% paraformaldehyde for 7 min, lysed in IP buffer; anti-FLAG or anti-KIF2C antibody or IgG control, protein G magnetic beads, 4 °C; Western blot
FLAG-tagged Nek2A = molecular target: T2, FLAG-tagged Nek2A; experiment: as above

| binding [1] | binding (FLAG-tagged Nek2A) | Binder |
| --- | --- | --- |
| binds |  | FLAG-tagged Nek2A (enzyme, UniProt P51955 1-445) MPSRAEDYEVLYTIGTGSYGRCQKIRRKSDGKILVWKELDYGSMTEAEKQMLVSEVNLLRELKHPNIVRYYDRIIDRTNTTLYIVMEYCEGGDLASVITKGTKERQYLDEEFVLRVMTQLTLALKECHRRSDGGHTVLHRDLKPANVFLDGKQNVKLGDFGLARILNHDTSFAKTFVGTPYYMSPEQMNRMSYNEKSDIWSLGCLLYELCALMPPFTAFSQKELAGKIREGKFRRIPYRYSDELNEIITRMLNLKDYHRPSVEEILENPLIADLVADEQRRNLERRGRQLGEPEKSQDSSPVLSELKLKEIQLQERERALKAREERLEQKEQELCVRERLAEDKLARAENLLKNYSLLKERKFLSLASNPELLNLPSSVIKKKVHFSGESKENIMRSENSESQLTSKSKCKDLKKRLHAAQLRAQALSDIEKNYQLKSRQILGMR |
|  | binds | KIF2C (protein, UniProt Q99661 1-725) MAMDSSLQARLFPGLAIKIQRSNGLIHSANVRTVNLEKSCVSVEWAEGGATKGKEIDFDDVAAINPELLQLLPLHPKDNLPLQENVTIQKQKRRSVNSKIPAPKESLRSRSTRMSTVSELRITAQENDMEVELPAAANSRKQFSVPPAPTRPSCPAVAEIPLRMVSEEMEEQVHSIRGSSSANPVNSVRRKSCLVKEVEKMKNKREEKKAQNSEMRMKRAQEYDSSFPNWEFARMIKEFRATLECHPLTMTDPIEEHRICVCVRKRPLNKQELAKKEIDVISIPSKCLLLVHEPKLKVDLTKYLENQAFCFDFAFDETASNEVVYRFTARPLVQTIFEGGKATCFAYGQTGSGKTHTMGGDLSGKAQNASKGIYAMASRDVFLLKNQPCYRKLGLEVYVTFFEIYNGKLFDLLNKKAKLRVLEDGKQQVQVVGLQEHLVNSADDVIKMIDMGSACRTSGQTFANSNSSRSHACFQIILRAKGRMHGKFSLVDLAGNERGADTSSADRQTRMEGAEINKSLLALKECIRALGQNKAHTPFRESKLTQVLRDSFIGENSRTCMIATISPGISSCEYTLNTLRYADRVKELSPHSGPSGEQLIQMETEEMEACSNGALIPGNLSKEEEELSSQMSSFNEAMTQIRELEEKAMEELKEIIQQGPDWLELSEMTEQPDYDLETFVNKAESALAQQAKHFSALRDVIKALRLAMQLEEQASRQISSKKRPQ |
